These results are taken from paper PMC3320590.

Sequences of proteins named here, by UniProt entry; tags and fusion partners are left off. Residues count along the entry.
UniProt Q8WPU1, residues 18-376: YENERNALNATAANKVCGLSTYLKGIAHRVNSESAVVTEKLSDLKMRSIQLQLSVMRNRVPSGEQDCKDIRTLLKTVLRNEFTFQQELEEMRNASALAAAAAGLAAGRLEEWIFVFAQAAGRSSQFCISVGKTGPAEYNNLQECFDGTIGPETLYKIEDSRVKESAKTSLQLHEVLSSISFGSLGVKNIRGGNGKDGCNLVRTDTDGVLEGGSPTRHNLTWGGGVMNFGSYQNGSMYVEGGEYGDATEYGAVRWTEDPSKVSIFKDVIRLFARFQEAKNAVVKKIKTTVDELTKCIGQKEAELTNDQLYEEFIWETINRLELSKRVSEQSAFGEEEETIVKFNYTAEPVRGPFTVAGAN
UniProt Q8WPU2, residues 18-338: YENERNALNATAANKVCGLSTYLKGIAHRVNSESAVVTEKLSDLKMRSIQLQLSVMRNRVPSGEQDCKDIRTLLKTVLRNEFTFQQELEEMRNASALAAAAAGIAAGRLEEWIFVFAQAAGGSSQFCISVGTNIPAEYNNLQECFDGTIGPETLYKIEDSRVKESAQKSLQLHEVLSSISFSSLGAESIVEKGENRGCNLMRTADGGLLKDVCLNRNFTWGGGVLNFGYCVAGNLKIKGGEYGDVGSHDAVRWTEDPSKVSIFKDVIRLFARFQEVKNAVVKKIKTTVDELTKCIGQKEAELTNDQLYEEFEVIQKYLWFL

In the test the target is ESAG6 subunit of the T. brucei transferrin receptor (T. brucei (endogenous in bloodstream form trypanosomes)) (UniProt Q8WPU1). Description: pull-down.

No constants are given. Whether binding was seen depends on the method and setting. Binding seen in cells or lysates may run through a third protein. Some entries that bind do so weakly or less than the wild type.

Regarding “ESAG7 subunit of the T. brucei transferrin receptor (from UniProt Q8WPU2 18-338)”, the binding entry was “binds”.
